Source: patent publication US11725036B2 (Sanofi, priority 2018, dated 2023)

Test: general procedure: Fmoc solid-phase peptide synthesis; Rink amide AM resin (low loading 0.47 mmol/g; Novabiochem or ChemImpex); DIC 0.5M/Oxyma 1M in DMF
Conditions: whole synthesis; for final HPLC purity: UV; for final HPLC purity / isolated yield: scale of the general procedure 0.1-0.2 mmol per batch

Row | Substance | isolated mass (TFA salt) | final HPLC purity (trifluoroacetate salt) | isolated yield (trifluoroacetate salt) | crude mass (trifluoroacetate salt) | crude mass (scale 5 x 0.2 mmol, trifluoroacetate salt) | crude mass (scale 0.4 mmol, trifluoroacetate salt) | isolated mass (scale 0.1 mmol, trifluoroacetate salt)
1 | Ac-L-E-G-R-E-K-V-R-A-K(Ac)-I-Aib-Aib-E-G-K(PEGDGA-PEGDGA-PEGDGA-gE-gE-gE-Palm)-S-T-F-S-Mly-R-A-K(Ac)-NH2 | 37 mg | 99% | 8% | 220 mg | – | – | –
2 | Ac-L-E-G-R-E-K-V-R-A-K(Ac)-I-Aib-Aib-E-G-K(TTDS-TTDS-TTDS-gE-gE-gE-Palm)-S-T-F-S-Mly-R-A-K(Ac)-NH2 | 428 mg | 99% | 17.5% | – | 4300 mg | – | –
3 | Ac-L-E-G-R-E-K-V-R-A-K(Ac)-I-Aib-Aib-E-G-K(TTDS-TTDS-TTDS-gE-gE-gE-Stea)-S-T-F-S-Mly-R-A-K(Ac)-NH2 | 72 mg | 98% | 3.6% | – | – | 720 mg | –
4 | Ac-L-E-G-R-E-K-V-R-A-K(Ac)-I-Aib-Aib-E-G-K(TTDS-TTDS-TTDS-gE-gE-gE-Stea)-S-T-W-S-Aib-R-K-K(Ac)-NH2 | – | 99% | 4.5% | – | – | – | 20 mg
5 | Ac-L-E-G-R-E-K-V-R-A-K(Ac)-I-Aib-Aib-E-G-K(TTDS-TTDS-gE-gE-gE-Stea)-S-T-W-S-Aib-R-K-K(Ac)-NH2 | 38 mg | 97% | 8% | 240000 mg | – | – | –
